# Data taken from the supplement of paper PMC8728848.
# Some of the results follow.
# B1: PX14375D-bvu-513-34-513 (Bacteroides vulgatus) (protein)
# chain: TEDTFWKDETDFNLALTSCYTPLKNALNGGYYGTRGVMLRIARADEVDFRNDISDVYTVNRFTNSNTNSLTQGMFYQFYNALYRTNSIMQKLEEKKEQFSTDFQNSVKGECLFIRGFYLFQLAKEFKDAPLRLTASQSPSTFPLAKSSQADIWAQAKEDLKTAASLLPITNKIGKPTQGAAYAALGKIYVYEENWQEAINVLEPLTQNPYTYKLVEDFNWNFDDTHENNAESIFELLIEDVGGTDLWGDGENINSTQSNTRPKEYAAAEVGGWYEANPTQQIMDIFWKEKDKDGNFDYRARCSVAWDYEGCTYYQRPFREVFAQDKWKTYWILKYQNWKTQKDEPAPPKSFINERAIRYADVLLMLAEAYMNKGALDTSIGYINQIRRRANLNDYSGPITKEGVFEDLVHQRAIEFFVEGERFYDLRRWGLLEQTLKTCDDTRYKNYQTGKSDNINKFNYFPIPAKELDTNPLCTPSEGW
# Key:
# Experiment in all cases: glycan array binding signal (z-score within array); higher = stronger binding
# Conditions in all cases: glycan notation: IUPAC condensed, linker removed
# [1] = target: Gal(b1-4)GlcNAc(b1-2)[Gal(b1-4)GlcNAc(b1-6)]Man(a1-6)[GlcNAc(b1-4)][Gal(b1-4)GlcNAc(b1-2)Man(a1-3)]Man(b1-4)GlcNAc(b1-4)GlcNAc
# Procedure, shortened: (§1)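 Glycan array data came from 3228 arrays in the Consortium for Functional Glycomics database, and only arrays with an available protein sequence were kept. Glycan names were put into IUPAC-condensed notation, and columns mapping to the same glycan were averaged. The binding signal is a within-array Z-score, averaged across arrays of one protein sequence run at different concentrations or buffers and across linkers. A negative Z-score can be read as non-binding.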
# [2] = target: Gal(b1-4)GlcNAc(b1-2)[Gal(b1-4)GlcNAc(b1-6)]Man(a1-6)[GlcNAc(b1-4)][Gal(b1-4)GlcNAc(b1-2)[Gal(b1-4)GlcNAc(b1-4)]Man(a1-3)]Man(b1-4)GlcNAc(b1-4)[Fuc(a1-6)]GlcNAc
# Procedure, shortened: as §1
# [3] = target: Gal(b1-4)GlcNAc(b1-3)Gal(b1-3)GalNAc
# Procedure, shortened: as §1
# [4] = target: Gal(b1-4)GlcNAc(b1-3)Gal(b1-3)GlcNAc
# Procedure, shortened: as §1
# [5] = target: Gal(b1-4)GlcNAc(b1-3)Gal(b1-4)Glc
# Procedure, shortened: as §1
# [6] = target: Gal(b1-4)GlcNAc(b1-3)Gal(b1-4)GlcNAc
# Procedure, shortened: as §1
# [7] = target: Gal(b1-4)GlcNAc(b1-3)Gal(b1-4)GlcNAc(b1-2)Man(a1-3)[Gal(b1-4)GlcNAc(b1-3)Gal(b1-4)GlcNAc(b1-2)Man(a1-6)]Man(b1-4)GlcNAc(b1-4)GlcNAc
# Procedure, shortened: as §1
# [8] = target: Gal(b1-4)GlcNAc(b1-3)Gal(b1-4)GlcNAc(b1-2)Man(a1-3)[Gal(b1-4)GlcNAc(b1-3)Gal(b1-4)GlcNAc(b1-2)Man(a1-6)]Man(b1-4)GlcNAc(b1-4)[Fuc(a1-6)]GlcNAc
# Procedure, shortened: as §1
# [9] = target: Gal(b1-4)GlcNAc(b1-3)Gal(b1-4)GlcNAc(b1-2)[Gal(b1-4)GlcNAc(b1-3)Gal(b1-4)GlcNAc(b1-6)]Man(a1-6)[Gal(b1-4)GlcNAc(b1-3)Gal(b1-4)GlcNAc(b1-2)Man(a1-3)]Man(b1-4)GlcNAc(b1-4)GlcNAc
# Procedure, shortened: as §1
# [10] = target: Gal(b1-4)GlcNAc(b1-3)Gal(b1-4)GlcNAc(b1-2)[Gal(b1-4)GlcNAc(b1-3)Gal(b1-4)GlcNAc(b1-6)]Man(a1-6)[Gal(b1-4)GlcNAc(b1-3)Gal(b1-4)GlcNAc(b1-2)Man(a1-3)]Man(b1-4)GlcNAc(b1-4)[Fuc(a1-6)]GlcNAc
# Procedure, shortened: as §1
# [11] = target: Gal(b1-4)GlcNAc(b1-3)Gal(b1-4)GlcNAc(b1-3)Gal(b1-4)GlcNAc
# Procedure, shortened: as §1
# [12] = target: Gal(b1-4)GlcNAc(b1-3)Gal(b1-4)GlcNAc(b1-3)Gal(b1-4)GlcNAc(b1-2)Man(a1-3)[Gal(b1-4)GlcNAc(b1-3)Gal(b1-4)GlcNAc(b1-3)Gal(b1-4)GlcNAc(b1-2)Man(a1-6)]Man(b1-4)GlcNAc(b1-4)GlcNAc
# Procedure, shortened: as §1
# [13] = target: Gal(b1-4)GlcNAc(b1-3)Gal(b1-4)GlcNAc(b1-3)Gal(b1-4)GlcNAc(b1-2)Man(a1-3)[Gal(b1-4)GlcNAc(b1-3)Gal(b1-4)GlcNAc(b1-3)Gal(b1-4)GlcNAc(b1-2)Man(a1-6)]Man(b1-4)GlcNAc(b1-4)[Fuc(a1-6)]GlcNAc
# Procedure, shortened: as §1
# [14] = target: Gal(b1-4)GlcNAc(b1-3)Gal(b1-4)GlcNAc(b1-3)Gal(b1-4)GlcNAc(b1-2)[Gal(b1-4)GlcNAc(b1-3)Gal(b1-4)GlcNAc(b1-3)Gal(b1-4)GlcNAc(b1-6)]Man(a1-6)[Gal(b1-4)GlcNAc(b1-3)Gal(b1-4)GlcNAc(b1-3)Gal(b1-4)GlcNAc(b1-2)Man(a1-3)]Man(b1-4)GlcNAc(b1-4)[Fuc(a1-6)]GlcNAc
# Procedure, shortened: as §1
# [15] = target: Gal(b1-4)GlcNAc(b1-3)Gal(b1-4)GlcNAc(b1-3)Gal(b1-4)GlcNAc(b1-3)Gal(b1-4)GlcNAc(b1-2)Man(a1-3)[Gal(b1-4)GlcNAc(b1-3)Gal(b1-4)GlcNAc(b1-3)Gal(b1-4)GlcNAc(b1-3)Gal(b1-4)GlcNAc(b1-2)Man(a1-6)]Man(b1-4)GlcNAc(b1-4)GlcNAc
# Procedure, shortened: as §1
# [16] = target: Gal(b1-4)GlcNAc(b1-3)Gal(b1-4)GlcNAc(b1-3)Gal(b1-4)GlcNAc(b1-3)Gal(b1-4)GlcNAc(b1-2)Man(a1-3)[Gal(b1-4)GlcNAc(b1-3)Gal(b1-4)GlcNAc(b1-3)Gal(b1-4)GlcNAc(b1-3)Gal(b1-4)GlcNAc(b1-2)Man(a1-6)]Man(b1-4)GlcNAc(b1-4)[Fuc(a1-6)]GlcNAc
# Procedure, shortened: as §1
# [17] = target: Gal(b1-4)GlcNAc(b1-3)Gal(b1-4)GlcNAc(b1-3)Gal(b1-4)GlcNAc(b1-3)Gal(b1-4)GlcNAc(b1-2)[Gal(b1-4)GlcNAc(b1-3)Gal(b1-4)GlcNAc(b1-3)Gal(b1-4)GlcNAc(b1-3)Gal(b1-4)GlcNAc(b1-6)]Man(a1-6)[Gal(b1-4)GlcNAc(b1-3)Gal(b1-4)GlcNAc(b1-3)Gal(b1-4)GlcNAc(b1-3)Gal(b1-4)GlcNAc(b1-2)Man(a1-3)]Man(b1-4)GlcNAc(b1-4)[Fuc(a1-6)]GlcNAc
# Procedure, shortened: as §1
# [18] = target: Gal(b1-4)GlcNAc(b1-3)Gal(b1-4)GlcNAc(b1-3)Gal(b1-4)GlcNAc(b1-3)Gal(b1-4)GlcNAc(b1-3)Gal(b1-4)GlcNAc(b1-2)Man(a1-3)[Gal(b1-4)GlcNAc(b1-3)Gal(b1-4)GlcNAc(b1-3)Gal(b1-4)GlcNAc(b1-3)Gal(b1-4)GlcNAc(b1-3)Gal(b1-4)GlcNAc(b1-2)Man(a1-6)]Man(b1-4)GlcNAc(b1-4)GlcNAc
# Procedure, shortened: as §1
# [19] = target: Gal(b1-4)GlcNAc(b1-3)Gal(b1-4)GlcNAc(b1-3)Gal(b1-4)GlcNAc(b1-3)Gal(b1-4)GlcNAc(b1-3)Gal(b1-4)GlcNAc(b1-2)Man(a1-3)[Gal(b1-4)GlcNAc(b1-3)Gal(b1-4)GlcNAc(b1-3)Gal(b1-4)GlcNAc(b1-3)Gal(b1-4)GlcNAc(b1-3)Gal(b1-4)GlcNAc(b1-2)Man(a1-6)]Man(b1-4)GlcNAc(b1-4)[Fuc(a1-6)]GlcNAc
# Procedure, shortened: as §1
# [20] = target: Gal(b1-4)GlcNAc(b1-3)Gal(b1-4)GlcNAc(b1-3)Gal(b1-4)GlcNAc(b1-3)Gal(b1-4)GlcNAc(b1-3)Gal(b1-4)GlcNAc(b1-2)[Gal(b1-4)GlcNAc(b1-3)Gal(b1-4)GlcNAc(b1-3)Gal(b1-4)GlcNAc(b1-3)Gal(b1-4)GlcNAc(b1-3)Gal(b1-4)GlcNAc(b1-6)]Man(a1-6)[Gal(b1-4)GlcNAc(b1-3)Gal(b1-4)GlcNAc(b1-3)Gal(b1-4)GlcNAc(b1-3)Gal(b1-4)GlcNAc(b1-3)Gal(b1-4)GlcNAc(b1-2)Man(a1-3)]Man(b1-4)GlcNAc(b1-4)[Fuc(a1-6)]GlcNAc
# Procedure, shortened: as §1
# [21] = target: Gal(b1-4)GlcNAc(b1-3)Gal(b1-4)GlcNAc(b1-3)Gal(b1-4)GlcNAc(b1-3)Gal(b1-4)GlcNAc(b1-3)Gal(b1-4)GlcNAc(b1-3)Gal(b1-4)GlcNAc(b1-2)Man(a1-3)[Gal(b1-4)GlcNAc(b1-3)Gal(b1-4)GlcNAc(b1-3)Gal(b1-4)GlcNAc(b1-3)Gal(b1-4)GlcNAc(b1-3)Gal(b1-4)GlcNAc(b1-3)Gal(b1-4)GlcNAc(b1-2)Man(a1-6)]Man(b1-4)GlcNAc(b1-4)GlcNAc
# Procedure, shortened: as §1
# [22] = target: Gal(b1-4)GlcNAc(b1-3)Gal(b1-4)GlcNAc(b1-3)GalNAc
# Procedure, shortened: as §1
# [23] = target: Gal(b1-4)GlcNAc(b1-3)Gal(b1-4)GlcNAc(b1-3)[Gal(b1-4)GlcNAc(b1-3)Gal(b1-4)GlcNAc(b1-6)]GalNAc
# Procedure, shortened: as §1
# [24] = target: Gal(b1-4)GlcNAc(b1-3)Gal(b1-4)GlcNAc(b1-6)[Gal(b1-3)]GalNAc
# Procedure, shortened: as §1
# [25] = target: Gal(b1-4)GlcNAc(b1-3)Gal(b1-4)[Fuc(a1-3)]GlcNAc(b1-3)Gal(b1-4)[Fuc(a1-3)]GlcNAc
# Procedure, shortened: as §1
# [26] = target: Gal(b1-4)GlcNAc(b1-3)GalNAc
# Procedure, shortened: as §1
# [27] = target: Gal(b1-4)GlcNAc(b1-3)[Fuc(a1-3)GlcNAc(b1-6)]Gal(b1-4)Glc
# Procedure, shortened: as §1
# [28] = target: Gal(b1-4)GlcNAc(b1-3)[Gal(b1-4)GlcNAc(b1-6)]Gal(b1-4)GlcNAc
# Procedure, shortened: as §1
# [29] = target: Gal(b1-4)GlcNAc(b1-3)[GlcNAc(b1-6)]Gal(b1-4)GlcNAc
# Procedure, shortened: as §1
# [30] = target: Gal(b1-4)GlcNAc(b1-6)Gal(b1-4)GlcNAc
# Procedure, shortened: as §1
# [31] = target: Gal(b1-4)GlcNAc(b1-6)GalNAc
# Procedure, shortened: as §1
# [32] = target: Gal(b1-4)GlcNAc(b1-6)[Gal(b1-3)]GalNAc
# Procedure, shortened: as §1
# [33] = target: Gal(b1-4)GlcNAc(b1-6)[Gal(b1-4)GlcNAc(b1-3)]GalNAc
# Procedure, shortened: as §1
# [34] = target: Gal(b1-4)GlcNAc6P
# Procedure, shortened: as §1
# [35] = target: Gal(b1-6)Gal
# Procedure, shortened: as §1
# [36] = target: Gal3S(b1-3)GalNAc
# Procedure, shortened: as §1
# [37] = target: Gal3S(b1-3)GlcNAc
# Procedure, shortened: as §1
# [38] = target: Gal3S(b1-3)[Fuc(a1-4)]GlcNAc
# Procedure, shortened: as §1
binder,measurement,setting,value
B1,glycan array binding signal (z-score),[1],-0.303
same,glycan array binding signal (z-score),[2],-0.989
same,glycan array binding signal (z-score),[3],-0.038
same,glycan array binding signal (z-score),[4],-0.801
same,glycan array binding signal (z-score),[5],-0.017
same,glycan array binding signal (z-score),[6],-0.456
same,glycan array binding signal (z-score),[7],1.87
same,glycan array binding signal (z-score),[8],-0.044
same,glycan array binding signal (z-score),[9],0.712
same,glycan array binding signal (z-score),[10],1.07
same,glycan array binding signal (z-score),[11],0.236
same,glycan array binding signal (z-score),[12],-0.033
same,glycan array binding signal (z-score),[13],0.443
same,glycan array binding signal (z-score),[14],0.978
same,glycan array binding signal (z-score),[15],0.611
same,glycan array binding signal (z-score),[16],0.944
same,glycan array binding signal (z-score),[17],0.525
same,glycan array binding signal (z-score),[18],0.557
same,glycan array binding signal (z-score),[19],0.824
same,glycan array binding signal (z-score),[20],-0.026
same,glycan array binding signal (z-score),[21],-0.639
same,glycan array binding signal (z-score),[22],-0.802
same,glycan array binding signal (z-score),[23],0.258
same,glycan array binding signal (z-score),[24],0.121
same,glycan array binding signal (z-score),[25],-0.114
same,glycan array binding signal (z-score),[26],-0.747
same,glycan array binding signal (z-score),[27],-0.16
same,glycan array binding signal (z-score),[28],-0.128
same,glycan array binding signal (z-score),[29],-0.257
same,glycan array binding signal (z-score),[30],-0.736
same,glycan array binding signal (z-score),[31],-0.033
same,glycan array binding signal (z-score),[32],-0.438
same,glycan array binding signal (z-score),[33],-0.604
same,glycan array binding signal (z-score),[34],0.457
same,glycan array binding signal (z-score),[35],-0.981
same,glycan array binding signal (z-score),[36],-0.283
same,glycan array binding signal (z-score),[37],0.29
same,glycan array binding signal (z-score),[38],0.555

# An excerpt of these results, bar-delimited:
binder | measurement | setting | value
B1 | glycan array binding signal (z-score) | [12] | -0.033
same | glycan array binding signal (z-score) | [19] | 0.824
